Drug screen on melanoma cell lines: cell count

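The test systems are human melanoma cell lines, treated with a pair of drugs for 72 h and then stained and imaged. Values are the number of DAPI-stained nuclei as a percentage of the DMSO control: 100 is no effect, lower means fewer cells. Every drug was used at one fixed concentration, the lower of two screened (a fifth of the higher). No replicate spread is given; individual values may be noisy.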 Only some of the drugs and lines screened are listed, without regard to their results. An entry leaves out what has no value listed here. A dash means that no value is listed here.

First drug in all entries: etoposide, 20 nM, COc1cc([C@@H]2c3cc4c(cc3[C@@H](O[C@@H]3O[C@@H]5CO[C@@H](C)O[C@H]5[C@H](O)[C@H]3O)[C@H]3COC(=O)[C@H]23)OCO4)cc(OC)c1O

Compounds and concentrations:
vorinostat: O=C(CCCCCCC(=O)Nc1ccccc1)NO at 80 nM
enzastaurin: Cn1cc(C2=C(c3cn(C4CCN(Cc5ccccn5)CC4)c4ccccc34)C(=O)NC2=O)c2ccccc21 at 800 nM
GSK650394: O=C(O)c1ccc(-c2c[nH]c3ncc(-c4ccccc4)cc23)cc1C1CCCC1 at 160 nM
FK866: O=C(/C=C/c1cccnc1)NCCCCC1CCN(C(=O)c2ccccc2)CC1 at 10 nM
U73122: COc1ccc2c(c1)CCC1C2CCC2(C)C(NCCCCCCN3C(=O)C=CC3=O)CCC12 (stereo unspecified) at 400 nM
RKI-983: C[C@@H](N)c1ccc(C(=O)Nc2ccnc3[nH]ccc23)cc1 at 400 nM
pazopanib: Cc1ccc(Nc2nccc(N(C)c3ccc4c(C)n(C)nc4c3)n2)cc1S(N)(=O)=O at 400 nM
BI-D1870: CC(C)CCN1c2nc(Nc3cc(F)c(O)c(F)c3)ncc2N(C)C(=O)C1C (stereo unspecified) at 200 nM
Src-I1: COc1cc2ncnc(Nc3ccc(Oc4ccccc4)cc3)c2cc1OC at 2000 nM
GW441756: Cn1cc(/C=C2\C(=O)Nc3cccnc32)c2ccccc21 at 400 nM
cisplatin: N.N.[Cl][Pt][Cl] at 1600 nM
CX-4945: O=C(O)c1ccc2c(c1)nc(Nc1cccc(Cl)c1)c1ccncc12 at 400 nM
CP-690550: C[C@@H]1CCN(C(=O)CC#N)C[C@@H]1N(C)c1ncnc2[nH]ccc12 at 1000 nM
tipifarnib: Cn1cncc1[C@@](N)(c1ccc(Cl)cc1)c1ccc2c(c1)c(-c1cccc(Cl)c1)cc(=O)n2C at 10 nM
GW2580: COc1ccc(COc2ccc(Cc3cnc(N)nc3N)cc2OC)cc1 at 1000 nM
nilutamide: CC1(C)NC(=O)N(c2ccc([N+](=O)[O-])c(C(F)(F)F)c2)C1=O at 1000 nM
palbociclib: CC(=O)c1c(C)c2cnc(Nc3ccc(N4CCNCC4)cn3)nc2n(C2CCCC2)c1=O at 40 nM
ABT-263: CC1(C)CCC(c2ccc(Cl)cc2)=C(CN2CCN(c3ccc(C(=O)NS(=O)(=O)c4ccc(N[C@H](CCN5CCOCC5)CSc5ccccc5)c(S(=O)(=O)C(F)(F)F)c4)cc3)CC2)C1 at 400 nM
T0901317: O=S(=O)(c1ccccc1)N(CC(F)(F)F)c1ccc(C(O)(C(F)(F)F)C(F)(F)F)cc1 at 1400 nM

| Partner | COLO 829 | COLO 792 | IST-MEL1 | MEL-HO | LB2518-MEL | A375 |
|---|---|---|---|---|---|---|
| T0901317 | 73.9 | 89.1 | 91.3 | 96.5 | 104 | - |
| cisplatin | 92.4 | 91.0 | 95.9 | 89.7 | 101 | 73.4 |
| RKI-983 | 92.9 | 91.7 | 103 | 84.8 | 110 | 96.4 |
| pazopanib | 119 | 96.3 | 97.6 | 97.6 | 106 | 87.2 |
| GW441756 | 101 | 90.9 | 103 | 96.6 | 99.7 | - |
| tipifarnib | 80.8 | 90.0 | 95.2 | 89.4 | 78.6 | 91.2 |
| CP-690550 | 94.9 | 104 | 100 | 90.0 | 87.6 | 95.4 |
| palbociclib | 78.5 | 75.6 | 91.9 | 75.4 | 79.1 | 55.0 |
| nilutamide | 128 | 103 | 107 | 97.2 | 91.5 | 83.9 |
| enzastaurin | 109 | 114 | 105 | 106 | 115 | 92.4 |
| Src-I1 | 126 | 85.3 | 97.8 | 62.8 | 101 | - |
| GW2580 | 93.5 | 100 | 103 | 105 | 87.7 | - |
| vorinostat | 97.0 | 76.5 | 95.9 | 95.0 | 101 | 99.2 |
| GSK650394 | 95.8 | 108 | 97.5 | 86.3 | 85.4 | 84.0 |
| ABT-263 | 88.1 | 59.9 | 75.2 | 70.9 | 74.0 | 60.1 |
| U73122 | 95.9 | 111 | 99.7 | 102 | 87.5 | - |
| BI-D1870 | 105 | 103 | 93.6 | 96.3 | 90.0 | - |
| CX-4945 | 102 | 117 | 107 | 93.4 | 89.8 | 104 |
| FK866 | 61.7 | 70.9 | 71.3 | 45.6 | - | 95.1 |

Once more, the final 2:

{"partner": "CX-4945", "COLO 829": 102, "COLO 792": 117, "IST-MEL1": 107, "MEL-HO": 93.4, "LB2518-MEL": 89.8, "A375": 104}
{"partner": "FK866", "COLO 829": 61.7, "COLO 792": 70.9, "IST-MEL1": 71.3, "MEL-HO": 45.6, "A375": 95.1}

Values as published with doi:10.1371/journal.pone.0140310, rounded.